The source of these data is publication PMC6287947.

The target in assay [1] is T1, GST-Mitch (Drosophila (D. melanogaster)) (UniProt Q9V3V7).
T1 sequence: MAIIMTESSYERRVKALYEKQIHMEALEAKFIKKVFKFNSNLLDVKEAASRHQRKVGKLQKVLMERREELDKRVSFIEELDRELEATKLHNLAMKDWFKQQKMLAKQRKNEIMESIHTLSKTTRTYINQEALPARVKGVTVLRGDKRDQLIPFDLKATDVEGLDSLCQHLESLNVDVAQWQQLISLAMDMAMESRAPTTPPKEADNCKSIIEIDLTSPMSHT
Nature of the assay: pull-down; lysates from S2 cells expressing HA-tagged SFs incubated at 4°C for 2 hr with GST-fusion proteins or GST alone; Western blotting with anti-HA; only the target purified. In general terms: Immunoblotting shows a protein as a band on a membrane.

Assay [2] concerns the target T1, GST-Mitch (Drosophila (D. melanogaster)). Nature of the assay: pull-down; bacterially expressed purified proteins; GST-Mitch (60 nM), GST-Nuf2 (50 nM), GST-Ndc80 (40 nM) or GST (200 nM) on glutathione beads incubated at 4°C for 2 hr with 6His-Sf3A2 (20 nM) or 6His-Prp31 (20 nM) in NETN buffer (20 mM Tris-HCl, pH 8, 100 mM NaCl, 1 mM EDTA, 0.5% NP-40); both purified.

The target of assay [3] is T2, GST-Ver (Drosophila (D. melanogaster)) (UniProt Q9VTZ2).
T2 sequence: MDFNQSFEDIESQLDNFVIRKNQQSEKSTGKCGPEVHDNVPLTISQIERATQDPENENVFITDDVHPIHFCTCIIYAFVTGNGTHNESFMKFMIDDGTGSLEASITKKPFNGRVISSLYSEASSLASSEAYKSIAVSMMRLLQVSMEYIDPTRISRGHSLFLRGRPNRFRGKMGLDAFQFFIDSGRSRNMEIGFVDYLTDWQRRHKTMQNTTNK
The assay is described as above.

Assay [4] has as its target T3, GST-HOAP (Drosophila (D. melanogaster)) (UniProt Q95RV2).
T3 sequence: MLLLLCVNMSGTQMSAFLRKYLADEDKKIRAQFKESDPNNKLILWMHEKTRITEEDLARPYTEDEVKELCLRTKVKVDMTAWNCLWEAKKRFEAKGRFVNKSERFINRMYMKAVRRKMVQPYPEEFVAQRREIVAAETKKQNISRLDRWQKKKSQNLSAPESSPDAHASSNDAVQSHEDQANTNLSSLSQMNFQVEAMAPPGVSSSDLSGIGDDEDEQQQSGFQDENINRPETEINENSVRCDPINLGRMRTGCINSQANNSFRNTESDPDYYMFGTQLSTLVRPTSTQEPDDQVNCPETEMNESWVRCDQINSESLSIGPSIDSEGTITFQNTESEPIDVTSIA
The description is as above.

No constants are given. Whether binding was seen depends on the method and setting. For some of these results: Binding seen in cells or lysates may run through a third protein. Some entries that bind do so weakly or less than the wild type. Where a sequence is shown, tags or fusion partners need not be part of it.

B1: 3HA-Prp31 (protein, UniProt Q9VUM1 1-501)
chain: MSLADELLADLEEDNDNELEEEDSEMASAEDESLLAEKLAKPAPNLMDVDVTVQSVRELCKLRDSERLKNTLQQIEHYASRQRTAAEMLGSVESDPEYCLIVDANAIAVDIDNEISIVHKFTKEKYQKRFPELDSLIVGEIEYLLAVKELGNDLDQVKNNEKLQAILTQATIMIVSVTASTTQGTMLTPAEKAKIDEACEMAIELNNFKSKIYEYVESRMTFIAPNLSMIVGASTAAKLLGIAGGLSKLSKMPACNVQVLGAQKKTLSGFSQTQMLPHTGYVYYSQIVQDTAPDLRRKAARLVAAKSVLAARVDACHESVHGEIGLRFKEDVEKKLDKLQEPPPVKFIKPLPKPIEGSKKKRGGKRVRKMKERYALTEFRKQANRMNFGDIEEDAYQGDLGYSRGTIGKTGTGRIRLPQVDEKTKVRISKTLHKNLQKQQVYGGNTTVKRQISGTASSVAFTPLQGLEIVNPQAAERSQTEANAKYFSNTSGFMSVGQRTT
Regarding B1, in assay [1], the binding entry is given as “binds”.

B2: 6His-Prp31 (protein, UniProt Q9VUM1 1-501)
chain: B1 chain
On to B2, for which the binding entry is reported as “binds” in assay [2], “no binding” in assay [3] and “no binding” in assay [4].
